# In the supplement of paper PMC8728848:
# The other results are listed elsewhere or left out.
# Legend:
# Test in all cases: glycan array binding signal (z-score within array); higher = stronger binding
# Conditions in all cases: glycan notation: IUPAC condensed, linker removed
# [1] = target: Gal(a1-3)Gal(b1-4)GlcNAc(b1-2)Man
# Procedure, shortened: (§1)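 From the Consortium for Functional Glycomics database, 3228 arrays were curated, keeping only those whose protein sequence was available. Binding is given as a within-array Z-score averaged across arrays sharing a protein sequence and across linkers. Negative Z-scores can be read as non-binding.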
# [2] = target: Gal(a1-3)Gal(b1-4)GlcNAc(b1-2)Man(a1-3)[Gal(a1-3)Gal(b1-4)GlcNAc(b1-2)Man(a1-6)]Man(b1-4)GlcNAc(b1-4)GlcNAc
# Procedure, shortened: as §1
# [3] = target: Gal(a1-3)Gal(b1-4)GlcNAc(b1-3)GalNAc
# Procedure, shortened: as §1
# [4] = target: Gal(a1-3)Gal(b1-4)GlcNAc(b1-6)GalNAc
# Procedure, shortened: as §1
# [5] = target: Gal(a1-3)Gal(b1-4)[Fuc(a1-3)]GlcNAc
# Procedure, shortened: as §1
# [6] = target: Gal(a1-3)Gal(b1-4)[Fuc(a1-3)]GlcNAc(b1-2)Man(a1-3)[Gal(a1-3)Gal(b1-4)[Fuc(a1-3)]GlcNAc(b1-2)Man(a1-6)]Man(b1-4)GlcNAc(b1-4)GlcNAc
# Procedure, shortened: as §1
# Gal(a1-3)GalNAc = target: Gal(a1-3)GalNAc
# Procedure, shortened: as §1
# [7] = target: Gal(a1-3)[Gal(a1-4)]Gal(b1-4)GlcNAc
# Procedure, shortened: as §1
# [8] = target: Gal(a1-4)Gal(b1-3)GlcNAc(b1-2)Man(a1-3)[Gal(a1-4)Gal(b1-3)GlcNAc(b1-2)Man(a1-6)]Man(b1-4)GlcNAc(b1-4)GlcNAc
# Procedure, shortened: as §1
# Gal(a1-4)Gal(b1-4)Glc = target: Gal(a1-4)Gal(b1-4)Glc
# Procedure, shortened: as §1
# Gal(a1-4)Gal(b1-4)GlcNAc = target: Gal(a1-4)Gal(b1-4)GlcNAc
# Procedure, shortened: as §1
# [9] = target: Gal(a1-4)Gal(b1-4)GlcNAc(b1-2)Man(a1-3)[Gal(a1-4)Gal(b1-4)GlcNAc(b1-2)Man(a1-6)]Man(b1-4)GlcNAc(b1-4)GlcNAc
# Procedure, shortened: as §1
# [10] = target: Gal(a1-4)Gal(b1-4)GlcNAc(b1-3)Gal(b1-4)Glc
# Procedure, shortened: as §1
# Gal(a1-4)GlcNAc = target: Gal(a1-4)GlcNAc
# Procedure, shortened: as §1
# Gal(a1-6)Glc = target: Gal(a1-6)Glc
# Procedure, shortened: as §1
# Gal(b1-2)Gal = target: Gal(b1-2)Gal
# Procedure, shortened: as §1
# Gal(b1-3)Gal = target: Gal(b1-3)Gal
# Procedure, shortened: as §1
# Gal(b1-3)Gal(b1-4)GlcNAc = target: Gal(b1-3)Gal(b1-4)GlcNAc
# Procedure, shortened: as §1
# Gal(b1-3)GalNAc = target: Gal(b1-3)GalNAc
# Procedure, shortened: as §1
# [11] = target: Gal(b1-3)GalNAc(a1-3)[Fuc(a1-2)]Gal(b1-4)Glc
# Procedure, shortened: as §1
# [12] = target: Gal(b1-3)GalNAc(a1-3)[Fuc(a1-2)]Gal(b1-4)GlcNAc
# Procedure, shortened: as §1
# Gal(b1-3)GalNAc(b1-3)Gal = target: Gal(b1-3)GalNAc(b1-3)Gal
# Procedure, shortened: as §1
# [13] = target: Gal(b1-3)GalNAc(b1-3)Gal(a1-4)Gal(b1-4)Glc
# Procedure, shortened: as §1
# [14] = target: Gal(b1-3)GalNAc(b1-4)Gal(b1-4)Glc
# Procedure, shortened: as §1
# [15] = target: Gal(b1-3)GalNAc(b1-4)[Neu5Ac(a2-3)]Gal(b1-4)Glc
# Procedure, shortened: as §1
# Gal(b1-3)GlcNAc = target: Gal(b1-3)GlcNAc
# Procedure, shortened: as §1
# [16] = target: Gal(b1-3)GlcNAc(a1-3)Gal(b1-4)GlcNAc
# Procedure, shortened: as §1
# [17] = target: Gal(b1-3)GlcNAc(a1-6)Gal(b1-4)GlcNAc
# Procedure, shortened: as §1
# Gal(b1-3)GlcNAc(b1-2)Man = target: Gal(b1-3)GlcNAc(b1-2)Man
# Procedure, shortened: as §1
# [18] = target: Gal(b1-3)GlcNAc(b1-2)Man(a1-3)[Gal(b1-3)GlcNAc(b1-2)Man(a1-6)]Man(b1-4)GlcNAc(b1-4)GlcNAc
# Procedure, shortened: as §1
# [19] = target: Gal(b1-3)GlcNAc(b1-2)Man(a1-3)[Gal(b1-3)GlcNAc(b1-2)Man(a1-6)]Man(b1-4)GlcNAc(b1-4)[Fuc(a1-6)]GlcNAc
# Procedure, shortened: as §1
# [20] = target: Gal(b1-3)GlcNAc(b1-2)Man(a1-3)[GlcNAc(b1-4)][Gal(b1-3)GlcNAc(b1-2)Man(a1-6)]Man(b1-4)GlcNAc(b1-4)GlcNAc
# Procedure, shortened: as §1
# [21] = target: Gal(b1-3)GlcNAc(b1-2)[Gal(b1-3)GlcNAc(b1-6)]Man(a1-6)[Gal(b1-3)GlcNAc(b1-2)Man(a1-3)]Man(b1-4)GlcNAc(b1-4)GlcNAc
# Procedure, shortened: as §1
# [22] = target: Gal(b1-3)GlcNAc(b1-3)Gal(b1-3)GlcNAc
# Procedure, shortened: as §1
# [23] = target: Gal(b1-3)GlcNAc(b1-3)Gal(b1-4)Glc
# Procedure, shortened: as §1
# [24] = target: Gal(b1-3)GlcNAc(b1-3)Gal(b1-4)GlcNAc
# Procedure, shortened: as §1
# [25] = target: Gal(b1-3)GlcNAc(b1-3)Gal(b1-4)GlcNAc(b1-2)Man(a1-3)[Gal(b1-3)GlcNAc(b1-3)Gal(b1-4)GlcNAc(b1-2)Man(a1-6)]Man(b1-4)GlcNAc(b1-4)GlcNAc
# Procedure, shortened: as §1
binder,measurement,setting,value
OS9 (Arabidopsis thaliana) (protein) MRGSHHHHHHGMASMTGGQQMGRDLYDDDDKSRLQIFPAHLVGTFSRNNREPKYKIEFLPEDSPFHPGDNLESMVMLDKHGNRFLCYLPKEEKATSGWTSSQQNISTVMMETQQLVKLKTPDELLQPLSEKCLFRQEGWWSYEFCHQKYVRQLHVEDENKIVQEFFLGTFDPEATAAFNQTVSDASTDASQRYHSHVYTNGTTCDLTGSPREVEVRFVCAETRAMVTSITELSTCKYALTVQCPTLCKHPLFQLEKPVSHTIHCNAIPVEEDATRNKEEQAVDESPKMIADS,glycan array binding signal (z-score),[1],0.108
same,glycan array binding signal (z-score),[2],1.3
same,glycan array binding signal (z-score),[3],0.445
same,glycan array binding signal (z-score),[4],0.243
same,glycan array binding signal (z-score),[5],-0.188
same,glycan array binding signal (z-score),[6],0.806
same,glycan array binding signal (z-score),Gal(a1-3)GalNAc,0.056
same,glycan array binding signal (z-score),[7],-0.966
same,glycan array binding signal (z-score),[8],-0.507
same,glycan array binding signal (z-score),Gal(a1-4)Gal(b1-4)Glc,2.7
same,glycan array binding signal (z-score),Gal(a1-4)Gal(b1-4)GlcNAc,-0.809
same,glycan array binding signal (z-score),[9],0.345
same,glycan array binding signal (z-score),[10],-0.893
same,glycan array binding signal (z-score),Gal(a1-4)GlcNAc,0.179
same,glycan array binding signal (z-score),Gal(a1-6)Glc,-0.61
same,glycan array binding signal (z-score),Gal(b1-2)Gal,-0.865
same,glycan array binding signal (z-score),Gal(b1-3)Gal,1.8
same,glycan array binding signal (z-score),Gal(b1-3)Gal(b1-4)GlcNAc,-0.25
same,glycan array binding signal (z-score),Gal(b1-3)GalNAc,-0.097
same,glycan array binding signal (z-score),[11],-0.114
same,glycan array binding signal (z-score),[12],-0.716
same,glycan array binding signal (z-score),Gal(b1-3)GalNAc(b1-3)Gal,3.02
same,glycan array binding signal (z-score),[13],-0.442
same,glycan array binding signal (z-score),[14],-0.4
same,glycan array binding signal (z-score),[15],-0.798
same,glycan array binding signal (z-score),Gal(b1-3)GlcNAc,-0.119
same,glycan array binding signal (z-score),[16],-1.06
same,glycan array binding signal (z-score),[17],0.159
same,glycan array binding signal (z-score),Gal(b1-3)GlcNAc(b1-2)Man,-0.21
same,glycan array binding signal (z-score),[18],-0.444
same,glycan array binding signal (z-score),[19],-0.157
same,glycan array binding signal (z-score),[20],-0.168
same,glycan array binding signal (z-score),[21],-0.551
same,glycan array binding signal (z-score),[22],-1.28
same,glycan array binding signal (z-score),[23],-1.28
same,glycan array binding signal (z-score),[24],-0.982
same,glycan array binding signal (z-score),[25],-0.093

# Some of the entries above in a different format:
binder | measurement | setting | value
OS9 (Arabidopsis thaliana) (protein) MRGSHHHHHHGMASMTGGQQMGRDLYDDDDKSRLQIFPAHLVGTFSRNNREPKYKIEFLPEDSPFHPGDNLESMVMLDKHGNRFLCYLPKEEKATSGWTSSQQNISTVMMETQQLVKLKTPDELLQPLSEKCLFRQEGWWSYEFCHQKYVRQLHVEDENKIVQEFFLGTFDPEATAAFNQTVSDASTDASQRYHSHVYTNGTTCDLTGSPREVEVRFVCAETRAMVTSITELSTCKYALTVQCPTLCKHPLFQLEKPVSHTIHCNAIPVEEDATRNKEEQAVDESPKMIADS | glycan array binding signal (z-score) | [20] | -0.168
same | glycan array binding signal (z-score) | [21] | -0.551
